According to patent US20180313836A1:
Results are given in words; binding and its absence hold for the method and conditions named. Binding seen in cells or lysates may run through a third protein. Some binding calls cover weakened binding; strength is not graded here. Where a sequence is shown, tags or fusion partners need not be part of it.

T1: HDAC6
T1 sequence: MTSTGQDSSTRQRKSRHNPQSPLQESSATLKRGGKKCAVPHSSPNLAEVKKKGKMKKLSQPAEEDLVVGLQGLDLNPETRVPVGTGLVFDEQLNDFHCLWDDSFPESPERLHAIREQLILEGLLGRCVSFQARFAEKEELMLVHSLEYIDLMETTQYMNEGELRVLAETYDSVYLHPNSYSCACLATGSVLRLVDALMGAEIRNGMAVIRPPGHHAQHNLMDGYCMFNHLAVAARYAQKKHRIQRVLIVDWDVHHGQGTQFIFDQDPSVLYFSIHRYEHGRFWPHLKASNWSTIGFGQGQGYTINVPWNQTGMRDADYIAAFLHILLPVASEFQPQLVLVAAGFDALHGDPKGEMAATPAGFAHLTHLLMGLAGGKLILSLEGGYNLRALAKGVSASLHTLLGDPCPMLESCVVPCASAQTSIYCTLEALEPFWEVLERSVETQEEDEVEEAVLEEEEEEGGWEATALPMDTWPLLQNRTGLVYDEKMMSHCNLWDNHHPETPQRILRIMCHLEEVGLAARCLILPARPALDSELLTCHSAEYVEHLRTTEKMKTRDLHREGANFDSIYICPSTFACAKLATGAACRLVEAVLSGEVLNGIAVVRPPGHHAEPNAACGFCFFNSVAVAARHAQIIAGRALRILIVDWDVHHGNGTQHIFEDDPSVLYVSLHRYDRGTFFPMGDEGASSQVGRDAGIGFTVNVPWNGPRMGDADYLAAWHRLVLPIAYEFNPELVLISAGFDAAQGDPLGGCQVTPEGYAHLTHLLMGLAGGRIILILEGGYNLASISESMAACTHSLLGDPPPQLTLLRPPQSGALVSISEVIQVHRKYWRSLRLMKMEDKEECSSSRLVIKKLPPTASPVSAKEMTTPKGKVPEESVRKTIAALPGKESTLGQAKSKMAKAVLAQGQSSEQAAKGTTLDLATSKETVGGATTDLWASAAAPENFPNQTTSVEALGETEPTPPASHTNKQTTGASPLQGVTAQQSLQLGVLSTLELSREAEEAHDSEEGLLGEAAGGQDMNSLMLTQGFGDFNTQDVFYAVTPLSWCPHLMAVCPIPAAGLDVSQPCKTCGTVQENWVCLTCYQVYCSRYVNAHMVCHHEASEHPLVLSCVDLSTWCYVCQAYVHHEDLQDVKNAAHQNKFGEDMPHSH

B1: E279D (GARS-V5) (enzyme, not shown: small tags and cut ends)
chain: MDGAGAEEVLAPLRLAVRQQGDLVRKLKEDKAPQVDVDKAVAELKARKRVLEAKELALQPKDDIVDRAKMEDTLKRRFFYDQAFAIYGGVSGLYDFGPVGCALKNNIIQTWRQHFIQEEQILEIDCTMLTPEPVLKTSGHVDKFADFMVKDVKNGECFRADHLLKAHLQKLMSDKKCSVEKKSEMESVLAQLDNYGQQELADLFVNYNVKSPITGNDLSPPVSFNLMFKTFIGPGGNMPGYLRPETAQGIFLNFKRLLEFNQGKLPFAAAQIGNSFRNDISPRSGLIRVREFTMAEIEHFVDPSEKDHPKFQNVADLHLYLYSAKAQVSGQSARKMRLGDAVEQGVINNTVLGYFIGRIYLYLTKVGISPDKLRFRQHMENEMAHYACDCWDAESKTSYGWIEIVGCADRSCYDLSCHARATKVPLVAEKPLKEPKTVNVVQFEPSKGAIGKAYKKDAKLVMEYLAICDECYITEMEMLLNEKGEFTIETEGKTFQLTKDMINVKRFQKTLYVEEVVPNVIEPSFGLGRIMYTVFEHTFHVREGDEQRTFFSFPAVVAPFKCSVLPLSQNQEFMPFVKELSEALTRHGVSHKVDDSSGSIGRRYARTDEIGVAFGVTIDFDTVNKTPHTATLRDRDSMRQIRAEISELPSIVQDLANGNITWADVEARYPLFEGQETGKKETIEE
B2: WT (V5-HARS) (enzyme, not shown: small tags and cut ends)
chain: AERAALEELVKLQGERVRGLKQQKASAELIEEEVAKLLKLKAQLGPDESKQKFVLKTPKGTRDYSPRQMAVREKVFDVIIRCFKRHGAEVIDTPVFELKETLMGKYGEDSKLIYDLKDQGGELLSLRYDLTVPFARYLAMNKLTNIKRYHIAKVYRRDNPAMTRGRYREFYQCDFDIAGNFDPMIPDAECLKIMCEILSSLQIGDFLVKVNDRRILDGMFAICGVSDSKFRTICSSVDKLDKVSWEEVKNEMVGEKGLAPEVADRIGDYVQQHGGVSLVEQLLQDPKLSQNKQALEGLGDLKLLFEYLTLFGIDDKISFDLSLARGLDYYTGVIYEAVLLQTPAQAGEEPLGVGSVAAGGRYDGLVGMFDPKGRKVPCVGLSIGVERIFSIVEQRLEALEEKIRTTETQVLVASAQKKLLEERLKLVSELWDAGIKAELLYKKNPKLLNQLQYCEEAGIPLVAIIGEQELKDGVIKLRSVTSREEVDVRREDLVEEIKRRTGQPLCIC
B3: P134H (V5-HARS) (enzyme, not shown: small tags and cut ends)
chain: AERAALEELVKLQGERVRGLKQQKASAELIEEEVAKLLKLKAQLGPDESKQKFVLKTPKGTRDYSPRQMAVREKVFDVIIRCFKRHGAEVIDTPVFELKETLMGKYGEDSKLIYDLKDQGGELLSLRYDLTVHFARYLAMNKLTNIKRYHIAKVYRRDNPAMTRGRYREFYQCDFDIAGNFDPMIPDAECLKIMCEILSSLQIGDFLVKVNDRRILDGMFAICGVSDSKFRTICSSVDKLDKVSWEEVKNEMVGEKGLAPEVADRIGDYVQQHGGVSLVEQLLQDPKLSQNKQALEGLGDLKLLFEYLTLFGIDDKISFDLSLARGLDYYTGVIYEAVLLQTPAQAGEEPLGVGSVAAGGRYDGLVGMFDPKGRKVPCVGLSIGVERIFSIVEQRLEALEEKIRTTETQVLVASAQKKLLEERLKLVSELWDAGIKAELLYKKNPKLLNQLQYCEEAGIPLVAIIGEQELKDGVIKLRSVTSREEVDVRREDLVEEIKRRTGQPLCIC
B4: D175E (V5-HARS) (enzyme, not shown: small tags and cut ends)
chain: AERAALEELVKLQGERVRGLKQQKASAELIEEEVAKLLKLKAQLGPDESKQKFVLKTPKGTRDYSPRQMAVREKVFDVIIRCFKRHGAEVIDTPVFELKETLMGKYGEDSKLIYDLKDQGGELLSLRYDLTVPFARYLAMNKLTNIKRYHIAKVYRRDNPAMTRGRYREFYQCEFDIAGNFDPMIPDAECLKIMCEILSSLQIGDFLVKVNDRRILDGMFAICGVSDSKFRTICSSVDKLDKVSWEEVKNEMVGEKGLAPEVADRIGDYVQQHGGVSLVEQLLQDPKLSQNKQALEGLGDLKLLFEYLTLFGIDDKISFDLSLARGLDYYTGVIYEAVLLQTPAQAGEEPLGVGSVAAGGRYDGLVGMFDPKGRKVPCVGLSIGVERIFSIVEQRLEALEEKIRTTETQVLVASAQKKLLEERLKLVSELWDAGIKAELLYKKNPKLLNQLQYCEEAGIPLVAIIGEQELKDGVIKLRSVTSREEVDVRREDLVEEIKRRTGQPLCIC
B5: WT (MFN2-V5) (protein, not shown: small tags and cut ends)
chain: MSLLFSRCNSIVTVKKNKRHMAEVNASPLKHFVTAKKKINGIFEQLGAYIQESATFLEDTYRNAELDPVTTEEQVLDVKGYLSKVRGISEVLARRHMKVAFFGRTSNGKSTVINAMLWDKVLPSGIGHTTNCFLRVEGTDGHEAFLLTEGSEEKRSAKTVNQLAHALHQDKQLHAGSLVSVMWPNSKCPLLKDDLVLMDSPGIDVTTELDSWIDKFCLDADVFVLVANSESTLMQTEKHFFHKVSERLSRPNIFILNNRWDASASEPEYMEEVRRQHMERCTSFLVDELGVVDRSQAGDRIFFVSAKEVLNARIQKAQGMPEGGGALAEGFQVRMFEFQNFERRFEECISQSAVKTKFEQHTVRAKQIAEAVRLIMDSLHMAAREQQVYCEEMREERQDRLKFIDKQLELLAQDYKLRIKQITEEVERQVSTAMAEEIRRLSVLVDDYQMDFHPSPVVLKVYKNELHRHIEEGLGRNMSDRCSTAITNSLQTMQQDMIDGLKPLLPVSVRSQIDMLVPRQCFSLNYDLNCDKLCADFQEDIEFHFSLGWTMLVNRFLGPKNSRRALMGYNDQVQRPIPLTPANPSMPPLPQGSLTQEEFMVSMVTGLASLTSRTSMGILVVGGVVWKAVGWRLIALSFGLYGLLYVYERLTWTTKAKERAFKRQFVEHASEKLQLVISYTGSNCSHQVQQELSGTFAHLCQQVDVTRENLEQEIAAMNKKIEVLDSLQSKAKLLRNKAGWLDSELNMFTHQYLQPSR
B6: R280H (MFN2-V5) (protein, not shown: small tags and cut ends)
chain: MSLLFSRCNSIVTVKKNKRHMAEVNASPLKHFVTAKKKINGIFEQLGAYIQESATFLEDTYRNAELDPVTTEEQVLDVKGYLSKVRGISEVLARRHMKVAFFGRTSNGKSTVINAMLWDKVLPSGIGHTTNCFLRVEGTDGHEAFLLTEGSEEKRSAKTVNQLAHALHQDKQLHAGSLVSVMWPNSKCPLLKDDLVLMDSPGIDVTTELDSWIDKFCLDADVFVLVANSESTLMQTEKHFFHKVSERLSRPNIFILNNRWDASASEPEYMEEVRRQHMEHCTSFLVDELGVVDRSQAGDRIFFVSAKEVLNARIQKAQGMPEGGGALAEGFQVRMFEFQNFERRFEECISQSAVKTKFEQHTVRAKQIAEAVRLIMDSLHMAAREQQVYCEEMREERQDRLKFIDKQLELLAQDYKLRIKQITEEVERQVSTAMAEEIRRLSVLVDDYQMDFHPSPVVLKVYKNELHRHIEEGLGRNMSDRCSTAITNSLQTMQQDMIDGLKPLLPVSVRSQIDMLVPRQCFSLNYDLNCDKLCADFQEDIEFHFSLGWTMLVNRFLGPKNSRRALMGYNDQVQRPIPLTPANPSMPPLPQGSLTQEEFMVSMVTGLASLTSRTSMGILVVGGVVWKAVGWRLIALSFGLYGLLYVYERLTWTTKAKERAFKRQFVEHASEKLQLVISYTGSNCSHQVQQELSGTFAHLCQQVDVTRENLEQEIAAMNKKIEVLDSLQSKAKLLRNKAGWLDSELNMFTHQYLQPSR

The binders below were run against EEF1A1 (assay: co-immunoprecipitation from NSC-34 cells expressing V5-tagged synthetase: IP EEF1A1, blot V5).

binding, binds:
B1, B2, B3, B4

These binders were tested against T1, HDAC6 (assay: co-immunoprecipitation from NSC-34 cells expressing MFN2-V5: IP HDAC6, blot V5).

binding, binds:
B5, B6
